Values quoted from earlier work in US10245273B2, “Oral pharmaceutical products and methods of use combining testosterone esters with hypolipidemic agents” (Clarus Therapeutics, Inc., priority 2013, dated 2019).
Read-outs that look alike come from different tables or passages of the source. At least one compound was matched to its structure with a doubt left.

System: HDL
[1] = small studies, HDL fractionation by NMR

## CC(C)(Oc1ccc(CCNC(=O)c2ccc(Cl)cc2)cc1)C(=O)O [bezafibrate]
[1]
  Increase in HDL levels: 20%
  Increase in the smallest HDL fraction: 167%

## CC(C)OC(=O)C(C)(C)Oc1ccc(C(=O)c2ccc(Cl)cc2)cc1 [fenofibrate]
Different sub-fractionation method
  Increase in small HDL particles: 18%
Hypertriglyceridemic patients
  Increase in HDL: 18%
  Increase in the smallest HDL fraction: 109%
Separate study, after 6 months of therapy
  Increase in the level of preβ-1 HDL: 50%
